Results as given in PMC11200976, “Pitavastatin Calcium Confers Fungicidal Properties to Fluconazole by Inhibiting Ubiquinone Biosynthesis and Generating Reactive Oxygen Species” (Antioxidants, 2024).

Tested on: C. albicans
Test: Broth microdilution assay of synergistic lethality with 4 μg/mL FLC (recovery on drug-free YPD)
Assay type: cell-based, Candida albicans
Conditions: concentration of the compound that is synergistically lethal with 4 μg/mL FLC

Row | Compound | Synergistic lethal concentrations
1 | CCCCc1oc2ccccc2c1C(=O)c1cc(I)c(OCCN(CC)CC)c(I)c1.Cl [Amiodarone (hydrochloride)] | 25 µM
2 | CC(C)c1c(C(=O)Nc2ccccc2)c(-c2ccccc2)c(-c2ccc(F)cc2)n1CC[C@@H](O)C[C@@H](O)CC(=O)[O-].CC(C)c1c(C(=O)Nc2ccccc2)c(-c2ccccc2)c(-c2ccc(F)cc2)n1CC[C@@H](O)C[C@@H](O)CC(=O)[O-].[Ca+2] [Atorvastatin (hemicalcium salt)] | 12.5 µM
3 | CC(C)c1c(C(=O)Nc2ccccc2)c(-c2ccccc2)c(-c2ccc(F)cc2)n1CC[C@@H](O)C[C@@H](O)CC(=O)O [Atorvastatin] | 25 µM
4 | CCCNCC(O)COc1ccccc1C(=O)CCc1ccccc1.Cl (stereo not shown) [Propafenone (hydrochloride)] | 100 µM
